Test results published in PubChem BioAssay AID504327 (National Center for Advancing Translational Sciences (NCATS), 2011).
Among all 390,000 compounds or so, about 820 (0.21%) were called active. Inconclusive means that the source gave no clear call. Such entries were picked first, then a sample of the others. The call rests on the fitted dose curve; in most records, active means well fitted inhibition curve with a large enough effect; inconclusive means small, poorly fitted or top-dose-only effect, or another doubt; inactive means no such curve, though single readings can be large or run the other way. Potencies of inconclusive entries are doubtful fits and often do not repeat.

The chains behind the UniProt entries cited, without tags or fusion partners.
UniProt Q92830, whole entry, looked up: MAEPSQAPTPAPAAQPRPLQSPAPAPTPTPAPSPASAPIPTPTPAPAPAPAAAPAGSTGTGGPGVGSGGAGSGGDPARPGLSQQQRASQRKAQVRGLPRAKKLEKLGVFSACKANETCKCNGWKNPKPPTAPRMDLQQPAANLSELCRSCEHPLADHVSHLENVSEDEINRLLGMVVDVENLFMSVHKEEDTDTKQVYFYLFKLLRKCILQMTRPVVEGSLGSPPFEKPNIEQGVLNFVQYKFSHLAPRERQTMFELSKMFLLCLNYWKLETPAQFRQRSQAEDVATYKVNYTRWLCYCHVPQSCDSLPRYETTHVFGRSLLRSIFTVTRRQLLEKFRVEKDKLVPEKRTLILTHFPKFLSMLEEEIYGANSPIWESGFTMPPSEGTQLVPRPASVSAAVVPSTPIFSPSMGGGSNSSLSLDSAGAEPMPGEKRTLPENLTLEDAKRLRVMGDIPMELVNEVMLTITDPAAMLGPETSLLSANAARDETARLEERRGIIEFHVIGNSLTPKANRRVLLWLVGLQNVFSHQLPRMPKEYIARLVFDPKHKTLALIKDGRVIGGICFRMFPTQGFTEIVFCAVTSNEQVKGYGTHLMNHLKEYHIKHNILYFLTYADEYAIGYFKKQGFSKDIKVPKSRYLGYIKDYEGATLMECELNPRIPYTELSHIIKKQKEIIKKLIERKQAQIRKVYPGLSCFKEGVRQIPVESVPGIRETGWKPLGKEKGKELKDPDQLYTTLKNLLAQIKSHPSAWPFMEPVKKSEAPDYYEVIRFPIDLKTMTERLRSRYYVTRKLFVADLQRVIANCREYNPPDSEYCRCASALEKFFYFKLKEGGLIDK

Biological target: Histone acetyltransferase KAT2A (Homo sapiens) (UniProt Q92830)
Experiment: qHTS Assay for Inhibitors of GCN5L2
Conditions: GCN5L2 HAT assay, ThioGlo1 CoA-SH fluorescence; activity change, negative = inhibition: at 58.9 µM (top of the series) unless noted
Summary of the method: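 GCN5L2 (20 nM) in 50mM HEPES pH 7.5, 0.1mM EDTA, 0.01% Tween-20 preincubated 15 min with compounds at room temperature. Reaction started with H3(1-25) 75uM, acetyl-CoA 70uM, ThioGlo1 50uM; CoA-thiol fluorescence (Ex340/Em540) read at 0 and 20 min.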
On the % scale 0 is the no-effect control and ±100 the full control effect; potency means the concentration at half of the fitted maximal effect.

| Structure (SMILES) | activity change, negative = inhibition | Potency |
| --- | --- | --- |
| O=c1[nH]c(CSc2cccc[n+]2[O-])nc2ccccc12 | inactive: -5.83% | – |
| CC(C)NC(=O)C(OC(=O)c1ccccc1)C(OC(=O)c1ccccc1)C(=O)O (centres undefined) | – | inconclusive: 8.91 µM [inhibitor, single point] |
| COc1ccc(S(=O)(=O)NNC(=O)Nc2ccc(C)cc2C)c(OC)c1 | – | inconclusive: 1.12 µM [inhibitor, full curve, poor fit] |
| CC1(C(=O)NCC2CC2)C=CC2(CCCCC2)N1C(=O)c1ccccc1 (centres undefined) | – | inconclusive: 7.08 µM [inhibitor, single point] |
| O=c1c(-c2cc(F)cc(F)c2)nc2cnc(N3CCNCC3)nc2n1C1CC1 | – | inconclusive: 28.2 µM [inhibitor, partial curve] |
| Fc1ccc(-c2ccnc(=S)[nH]2)cc1 | – | inconclusive: 28.2 µM [inhibitor, single point] |
| CC1(c2ccc3c(c2)OCCCO3)NC(=O)N(CC(=O)Nc2cccc(C#N)c2)C1=O (centres undefined) | inactive: -4.34% | – |
| COc1cc2c(cc1OC)CN(C(=O)c1cc(S(=O)(=O)N3CCOCC3)ccc1C)CC2 | – | inconclusive: 7.08 µM [inhibitor, single point] |
| O=c1c(-c2cccs2)nc2cnc(Oc3cccc(Cl)c3)nc2n1C1CC1 | – | inconclusive: 25.1 µM [inhibitor, single point] |
| O=C(COC(=O)c1ccncc1)NC(=O)C1CCCCC1 | – | inconclusive: 2.51 µM [inhibitor, full curve] |
| C=CCOc1ccccc1CN1CCC(n2nccc2NC(=O)C2CC2)CC1 | – | inconclusive: 5.01 µM [inhibitor, full curve, poor fit] |
| CNC(=O)c1c(O)c2cccc3c2n(c1=O)CCC3 | inactive: 3.43% | – |
| COc1ccc(-c2csc(Nc3cc(C)ccn3)n2)cc1C | – | inconclusive: 2.51 µM [inhibitor, partial curve] |
| Nn1c(Cc2ccc(F)cc2)n[nH]c1=S | inactive: -1.56% | – |
| COc1ccc(/C=N/NC(=S)NCCc2ccccc2)cc1 | – | inconclusive: 28.2 µM [inhibitor, single point] |
| Cc1cc(-c2ccc(C(C)C)c(S(=O)(=O)N3CCC(C)CC3)c2)on1 | inactive: -22.5% | – |
| Cc1cc(N2CCOCC2)nc2cc(O)ccc12 | inactive: -13.7% | – |
| Cc1cccc(C(=O)Nc2ccc3ccccc3c2)c1 | – | inconclusive: 0.708 µM [inhibitor, single point] |
| Cc1ccc(C(=O)Nc2cccnc2Oc2ccc(Cl)cc2)cc1 | – | inconclusive: 0.708 µM [inhibitor, full curve] |
| O=C(CSc1nc2ccccc2n1CCc1ccccc1)c1ccc(O)c(O)c1 | – | inconclusive: 22.4 µM [inhibitor, partial curve, poor fit] |
| Cc1ccc(CN2C(=O)CCC2C(=O)NC(C)C)cc1 (centres undefined) | – | inconclusive: 25.1 µM [inhibitor, single point] |
| O=C(COC(=O)c1ccc2ncsc2c1)Nc1ccccc1Br | inactive: -9.16% | – |
| N#Cc1c(-c2ccccc2)nc(SCC(=O)N2c3ccccc3Sc3ccccc32)[nH]c1=O | – | inconclusive: 39.8 µM [inhibitor, single point] |

| Structure (SMILES) | activity change, negative = inhibition | Potency |
| --- | --- | --- |
| O=C(Nc1ccc(-c2nc3ccccc3[nH]2)cc1)c1ccccc1NS(=O)(=O)c1ccc(F)cc1 | inactive: -17% | – |
| O=C(O)C(Cc1ccccc1)N1C(=O)/C(=C/C=C/c2ccco2)SC1=S (centres undefined) | – | active: 8.91 µM |
| Cc1c(CC(=O)NCCc2ccccc2F)c(=O)oc2cc(O)c(Cl)cc12 | – | inconclusive: 17.8 µM [inhibitor, partial curve] |
| CCCn1c(NC(=O)c2ccc(Br)cc2)nc2ccccc21 | inactive: -1.13% | – |
| CCOC(=O)Nc1ccc2c(c1)N(C(=O)N1CCN(C)CC1)c1ccccc1CC2 | – | inconclusive: 28.2 µM [inhibitor, single point] |
| CS(=O)(=O)Nc1cccc(C2=NN(C(=O)c3cccc([N+](=O)[O-])c3)C(c3cccs3)C2)c1 (centres undefined) | – | inconclusive: 7.08 µM [inhibitor, partial curve] |
| COc1cc2c(C#N)c(N3CCOCC3)nc(N)c2c(N)n1 | – | inconclusive: 31.6 µM [inhibitor, partial curve] |
| COc1ccc2[nH]c(C)c(CCN(Cc3cccs3)C(=S)Nc3cccc(F)c3)c2c1 | – | inconclusive: 39.8 µM [inhibitor, single point] |
| O=C(NCc1cccnc1)/C(=C\c1ccc(-c2ccc(Br)cc2)o1)S(=O)(=O)c1ccccc1 | – | inconclusive: 39.8 µM [inhibitor, single point] |
| Cc1cc(C)cc(Nc2c3c(nc4ncnn24)CCC3)c1 | – | inconclusive: 0.141 µM [inhibitor, partial curve, poor fit] |
| COc1cccc(/C=C2\SC(=S)N(CCC(=O)N3CCCCC3)C2=O)c1 | inactive: -7.45% | – |
| CCOC(=O)N1CCN(S(=O)(=O)c2ccc(C(=O)N(CCN(CC)CC)c3nc4ccc(C)cc4s3)cc2)CC1 | – | inconclusive: 39.8 µM [inhibitor, single point] |
| COc1cccc(/C=N/NC(=O)C(=O)NCc2cccnc2)c1OC | inactive: 2.97% | – |
| COc1ccc(CNc2cc(-c3cccnc3)ncn2)c(OC)c1 | – | inconclusive: 22.4 µM [inhibitor, partial curve] |
| COc1cccc(N2CCN(S(=O)(=O)c3ccc(-c4coc(C)n4)cc3)CC2)c1 | – | inconclusive: 1.12 µM [inhibitor, full curve, poor fit] |
| CN(C)Cc1c(O)ccc2occ(C(=O)c3ccc(F)cc3)c12 | – | inconclusive: 7.08 µM [inhibitor, single point] |
| COCCNC(=O)COc1cc(=O)n(C)c2ccccc12 | – | inconclusive: 5.62 µM [inhibitor, single point] |
| COCCn1c(=O)c(-c2cccs2)nc2cnc(N3CCNCC3)nc21 | – | inconclusive: 14.1 µM [inhibitor, partial curve] |
| Cc1ccccc1OCc1nc2ccccc2[nH]1 | inactive: 0% | – |
| O=C(c1ccc2c(c1)OCCO2)N(Cc1cccnc1)c1nc2c(F)cc(F)cc2s1 | inactive: -14.8% | – |
| COc1ccccc1-n1c(SCc2cc(=O)oc3cc(O)ccc23)nc2ccccc2c1=O | – | inconclusive: 31.6 µM [inhibitor, single point] |
| Cc1nc(N=Nc2cc(S(=O)(=O)O)ccc2S(=O)(=O)O)c(COP(=O)(O)O)c(C=O)c1O | – | inconclusive: 17.8 µM [inhibitor, partial curve] |
| Cc1ccc([C@@H]2CC=C(C(=O)O)[C@H](c3ccc(Br)cc3)N2S(=O)(=O)c2ccccc2C)cc1 | – | inconclusive: 39.8 µM [inhibitor, single point] |

| Structure (SMILES) | activity change, negative = inhibition | Potency |
| --- | --- | --- |
| CCOc1ccccc1NC(=O)C1CCN(c2nc(-c3ccc(OC)cc3)no2)CC1 | – | inconclusive: 2.82 µM [inhibitor, full curve] |
| O=C(CCn1c(=O)c2cccn2c2cccnc21)NCc1ccccc1F | inactive: -1.52% | – |
| COc1nc(-c2ccc(Cl)cc2)ccc1-c1noc(-c2cccs2)n1 | – | inconclusive: 6.31 µM [inhibitor, single point] |
| O=C(N/N=C/C=C/c1ccccc1)c1cc2c(ccc3ccccc32)o1 | – | inconclusive: 25.1 µM [inhibitor, single point] |
| CCN(CC)S(=O)(=O)c1ccc(/C=C/C(=O)Nc2cccc(F)c2)cc1 | inactive: -5.55% | – |
| Cc1ccc(NC(=O)COc2ccc(C(=O)c3ccccc3)cc2)c(O)c1 | – | inconclusive: 0.708 µM [inhibitor, full curve, poor fit] |
| CC[n+]1c(C)sc2sc3ccccc3c21 | – | inconclusive: 39.8 µM [inhibitor, single point] |
| CN1CCN(C(c2cccnc2)c2ccc3cccnc3c2O)CC1 (centres undefined) | inactive: -10.9% | – |
| Cn1ccs/c1=N\S(=O)(=O)c1ccc(Br)cc1 | – | inconclusive: 39.8 µM [inhibitor, single point] |
| CCc1ccc(-n2cnc3cc(C(=O)NCC(OC)OC)ccc32)cc1 | – | inconclusive: 39.8 µM [inhibitor, single point] |
| COc1cccc(NC(=O)CN(C)C(=O)CC2CC3CCC2C3)c1 (centres undefined) | – | inconclusive: 6.31 µM [inhibitor, single point] |
| CC(C)C(=O)NC(NC1CCS(=O)(=O)C1)C(Cl)(Cl)Cl (centres undefined) | inactive: -0.0336% | – |
| CCn1c(C)c(C)c2cc(C(=O)NCc3ccc(OC)cc3OC)ccc21 | inactive: -27.8% | – |
| Cc1cc2c(c(N3CCOCC3)n1)C(=O)OC2 | inconclusive: -32.4% [inhibitor] [at 0.501 µM] | – |
| O=C(C1=C[C@H](c2csc3ccccc23)C[C@H](OCc2ccc(CO)cc2)O1)N1CCOCC1 | inactive: -4.7% | – |
| CCC(=O)Nc1ccccc1C(=O)OCC(=O)c1ccc2ccccc2c1 | – | inconclusive: 39.8 µM [inhibitor, single point] |
| O=[N+]([O-])c1cc(Br)c(Nc2ccccc2)c([N+](=O)[O-])c1 | – | inconclusive: 3.55 µM [inhibitor, single point] |
| COCCC(=O)N1CCC(Oc2ccc(C(=O)N(C)C(C)c3ccon3)cc2)CC1 (centres undefined) | – | inconclusive: 0.501 µM [inhibitor, partial curve, poor fit] |
| O=C(c1cc(COc2ccc(F)cc2Cl)on1)N1C[C@H]2CC[C@H]1C2 | – | inconclusive: 6.31 µM [inhibitor, single point] |
| Cc1ccc(NC(=O)CN2CCCN(S(=O)(=O)c3ccc(Br)s3)CC2)cc1 | inactive: 3.63% | – |
| O=C(CSc1nc2cccnc2n1Cc1ccccc1)NCc1ccco1 | – | inconclusive: 22.4 µM [inhibitor, partial curve, poor fit] |
| C=CCNc1nc(NCc2ccccc2)nc(OCC)n1 | – | inconclusive: 3.55 µM [inhibitor, partial curve] |
| COCCNC(=O)C(=O)NNC(=O)COc1ccc(OC)cc1 | – | inconclusive: 39.8 µM [inhibitor, single point] |

Grouped by structure, the compounds so far with a nitro group on carbon

| Structure (SMILES) | activity change, negative = inhibition | Potency |
| --- | --- | --- |
| CS(=O)(=O)Nc1cccc(C2=NN(C(=O)c3cccc([N+](=O)[O-])c3)C(c3cccs3)C2)c1 (centres undefined) | – | inconclusive: 7.08 µM [inhibitor, partial curve] |
| O=[N+]([O-])c1cc(Br)c(Nc2ccccc2)c([N+](=O)[O-])c1 | – | inconclusive: 3.55 µM [inhibitor, single point] |
